The list shows a part of the results.

By UniProt entry, the sequences of proteins in these tests, tags left out. Where a name states a change or a piece, a line headed by the entry shows the natural chain unless it says otherwise.
UniProt Q68EM7: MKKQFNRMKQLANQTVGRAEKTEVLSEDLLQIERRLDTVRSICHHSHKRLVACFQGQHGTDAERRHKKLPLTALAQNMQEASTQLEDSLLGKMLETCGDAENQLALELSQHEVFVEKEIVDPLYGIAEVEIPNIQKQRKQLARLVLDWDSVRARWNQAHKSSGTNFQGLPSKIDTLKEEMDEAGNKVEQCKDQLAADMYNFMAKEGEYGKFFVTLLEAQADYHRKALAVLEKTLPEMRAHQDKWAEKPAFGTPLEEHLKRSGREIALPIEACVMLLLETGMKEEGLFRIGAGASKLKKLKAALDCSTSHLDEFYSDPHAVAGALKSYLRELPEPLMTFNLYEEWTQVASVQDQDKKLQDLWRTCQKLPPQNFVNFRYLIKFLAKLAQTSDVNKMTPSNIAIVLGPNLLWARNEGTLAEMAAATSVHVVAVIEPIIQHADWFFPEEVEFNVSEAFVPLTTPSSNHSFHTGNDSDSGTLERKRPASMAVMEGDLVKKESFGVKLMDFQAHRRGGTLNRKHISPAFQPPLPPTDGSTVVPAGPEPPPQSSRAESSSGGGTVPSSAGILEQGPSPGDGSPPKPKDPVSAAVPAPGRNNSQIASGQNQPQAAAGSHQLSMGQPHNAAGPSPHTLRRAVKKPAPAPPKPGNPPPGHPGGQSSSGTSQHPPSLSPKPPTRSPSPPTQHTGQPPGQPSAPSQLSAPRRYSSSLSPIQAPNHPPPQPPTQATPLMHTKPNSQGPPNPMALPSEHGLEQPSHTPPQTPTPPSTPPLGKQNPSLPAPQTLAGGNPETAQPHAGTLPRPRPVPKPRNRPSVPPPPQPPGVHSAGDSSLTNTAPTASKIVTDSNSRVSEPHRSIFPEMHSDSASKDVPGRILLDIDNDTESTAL
UniProt Q8WVL7: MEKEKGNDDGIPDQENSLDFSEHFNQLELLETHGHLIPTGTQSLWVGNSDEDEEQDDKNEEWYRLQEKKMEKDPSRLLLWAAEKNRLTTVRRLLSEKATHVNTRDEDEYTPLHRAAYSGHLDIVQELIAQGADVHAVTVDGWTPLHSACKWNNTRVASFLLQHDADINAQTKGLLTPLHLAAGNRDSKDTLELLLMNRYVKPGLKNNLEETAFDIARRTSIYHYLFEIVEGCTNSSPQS
UniProt Q13795: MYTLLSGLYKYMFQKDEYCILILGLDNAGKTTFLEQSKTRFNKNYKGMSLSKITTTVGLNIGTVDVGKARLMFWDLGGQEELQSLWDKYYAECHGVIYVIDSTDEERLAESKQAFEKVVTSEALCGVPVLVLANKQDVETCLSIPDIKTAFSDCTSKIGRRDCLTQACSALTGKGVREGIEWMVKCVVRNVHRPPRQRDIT
UniProt P42331: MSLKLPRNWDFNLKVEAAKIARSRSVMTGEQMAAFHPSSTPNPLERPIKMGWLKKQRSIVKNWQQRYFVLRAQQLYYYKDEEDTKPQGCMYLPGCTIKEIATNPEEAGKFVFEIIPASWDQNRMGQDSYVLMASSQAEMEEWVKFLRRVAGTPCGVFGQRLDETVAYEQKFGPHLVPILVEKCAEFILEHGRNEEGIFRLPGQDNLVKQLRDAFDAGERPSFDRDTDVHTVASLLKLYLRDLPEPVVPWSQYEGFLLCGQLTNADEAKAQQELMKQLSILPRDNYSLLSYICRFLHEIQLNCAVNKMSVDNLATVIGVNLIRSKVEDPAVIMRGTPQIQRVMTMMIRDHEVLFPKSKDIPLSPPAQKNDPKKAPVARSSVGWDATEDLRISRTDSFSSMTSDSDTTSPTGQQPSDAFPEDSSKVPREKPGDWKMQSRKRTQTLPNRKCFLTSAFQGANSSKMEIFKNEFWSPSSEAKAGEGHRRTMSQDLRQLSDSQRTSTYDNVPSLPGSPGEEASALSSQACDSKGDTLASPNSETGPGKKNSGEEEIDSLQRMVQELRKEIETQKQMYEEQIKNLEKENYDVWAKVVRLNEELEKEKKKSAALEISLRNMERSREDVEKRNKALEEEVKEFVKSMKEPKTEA
UniProt Q9UPM8: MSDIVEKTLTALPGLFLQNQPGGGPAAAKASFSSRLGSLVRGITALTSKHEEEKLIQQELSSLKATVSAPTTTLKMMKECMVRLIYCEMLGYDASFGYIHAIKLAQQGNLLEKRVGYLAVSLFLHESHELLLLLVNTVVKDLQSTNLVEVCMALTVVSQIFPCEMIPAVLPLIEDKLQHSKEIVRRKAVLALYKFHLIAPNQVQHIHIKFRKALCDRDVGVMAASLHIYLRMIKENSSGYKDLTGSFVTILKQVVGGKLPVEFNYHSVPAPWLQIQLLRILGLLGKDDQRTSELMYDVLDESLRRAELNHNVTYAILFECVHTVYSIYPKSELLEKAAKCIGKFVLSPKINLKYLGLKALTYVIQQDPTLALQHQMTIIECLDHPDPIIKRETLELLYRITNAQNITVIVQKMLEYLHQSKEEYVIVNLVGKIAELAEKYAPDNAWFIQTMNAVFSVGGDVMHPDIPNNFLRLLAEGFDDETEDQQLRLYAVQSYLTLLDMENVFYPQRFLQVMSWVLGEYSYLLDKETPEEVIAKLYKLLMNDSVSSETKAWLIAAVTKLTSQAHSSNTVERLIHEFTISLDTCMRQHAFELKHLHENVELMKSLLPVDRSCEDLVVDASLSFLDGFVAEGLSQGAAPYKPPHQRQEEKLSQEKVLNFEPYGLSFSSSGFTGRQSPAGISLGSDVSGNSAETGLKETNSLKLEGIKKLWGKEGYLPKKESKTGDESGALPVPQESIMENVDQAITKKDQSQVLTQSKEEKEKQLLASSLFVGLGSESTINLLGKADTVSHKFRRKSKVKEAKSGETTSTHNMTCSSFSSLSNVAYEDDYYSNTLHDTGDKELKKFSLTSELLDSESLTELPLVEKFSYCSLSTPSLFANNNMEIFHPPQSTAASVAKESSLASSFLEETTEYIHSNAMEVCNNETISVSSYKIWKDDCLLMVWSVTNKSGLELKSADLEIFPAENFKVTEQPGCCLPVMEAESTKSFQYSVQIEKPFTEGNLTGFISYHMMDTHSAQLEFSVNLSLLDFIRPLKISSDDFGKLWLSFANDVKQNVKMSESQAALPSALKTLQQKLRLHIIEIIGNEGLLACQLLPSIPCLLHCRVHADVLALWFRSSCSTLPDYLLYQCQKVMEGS
UniProt Q8N6H7: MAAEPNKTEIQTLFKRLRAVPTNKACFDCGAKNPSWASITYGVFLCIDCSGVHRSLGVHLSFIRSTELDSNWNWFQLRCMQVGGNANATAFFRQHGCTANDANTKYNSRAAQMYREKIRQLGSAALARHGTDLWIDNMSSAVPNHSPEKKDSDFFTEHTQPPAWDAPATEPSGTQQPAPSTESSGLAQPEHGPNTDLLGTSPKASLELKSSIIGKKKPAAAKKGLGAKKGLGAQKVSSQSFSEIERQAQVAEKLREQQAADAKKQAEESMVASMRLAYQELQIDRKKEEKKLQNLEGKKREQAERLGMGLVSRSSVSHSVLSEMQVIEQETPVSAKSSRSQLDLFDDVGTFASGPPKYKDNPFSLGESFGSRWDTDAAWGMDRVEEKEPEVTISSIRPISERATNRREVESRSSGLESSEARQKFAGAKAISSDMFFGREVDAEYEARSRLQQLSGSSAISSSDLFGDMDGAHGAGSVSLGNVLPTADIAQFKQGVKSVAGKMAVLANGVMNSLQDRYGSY
UniProt Q8NFD5, whole entry, looked up: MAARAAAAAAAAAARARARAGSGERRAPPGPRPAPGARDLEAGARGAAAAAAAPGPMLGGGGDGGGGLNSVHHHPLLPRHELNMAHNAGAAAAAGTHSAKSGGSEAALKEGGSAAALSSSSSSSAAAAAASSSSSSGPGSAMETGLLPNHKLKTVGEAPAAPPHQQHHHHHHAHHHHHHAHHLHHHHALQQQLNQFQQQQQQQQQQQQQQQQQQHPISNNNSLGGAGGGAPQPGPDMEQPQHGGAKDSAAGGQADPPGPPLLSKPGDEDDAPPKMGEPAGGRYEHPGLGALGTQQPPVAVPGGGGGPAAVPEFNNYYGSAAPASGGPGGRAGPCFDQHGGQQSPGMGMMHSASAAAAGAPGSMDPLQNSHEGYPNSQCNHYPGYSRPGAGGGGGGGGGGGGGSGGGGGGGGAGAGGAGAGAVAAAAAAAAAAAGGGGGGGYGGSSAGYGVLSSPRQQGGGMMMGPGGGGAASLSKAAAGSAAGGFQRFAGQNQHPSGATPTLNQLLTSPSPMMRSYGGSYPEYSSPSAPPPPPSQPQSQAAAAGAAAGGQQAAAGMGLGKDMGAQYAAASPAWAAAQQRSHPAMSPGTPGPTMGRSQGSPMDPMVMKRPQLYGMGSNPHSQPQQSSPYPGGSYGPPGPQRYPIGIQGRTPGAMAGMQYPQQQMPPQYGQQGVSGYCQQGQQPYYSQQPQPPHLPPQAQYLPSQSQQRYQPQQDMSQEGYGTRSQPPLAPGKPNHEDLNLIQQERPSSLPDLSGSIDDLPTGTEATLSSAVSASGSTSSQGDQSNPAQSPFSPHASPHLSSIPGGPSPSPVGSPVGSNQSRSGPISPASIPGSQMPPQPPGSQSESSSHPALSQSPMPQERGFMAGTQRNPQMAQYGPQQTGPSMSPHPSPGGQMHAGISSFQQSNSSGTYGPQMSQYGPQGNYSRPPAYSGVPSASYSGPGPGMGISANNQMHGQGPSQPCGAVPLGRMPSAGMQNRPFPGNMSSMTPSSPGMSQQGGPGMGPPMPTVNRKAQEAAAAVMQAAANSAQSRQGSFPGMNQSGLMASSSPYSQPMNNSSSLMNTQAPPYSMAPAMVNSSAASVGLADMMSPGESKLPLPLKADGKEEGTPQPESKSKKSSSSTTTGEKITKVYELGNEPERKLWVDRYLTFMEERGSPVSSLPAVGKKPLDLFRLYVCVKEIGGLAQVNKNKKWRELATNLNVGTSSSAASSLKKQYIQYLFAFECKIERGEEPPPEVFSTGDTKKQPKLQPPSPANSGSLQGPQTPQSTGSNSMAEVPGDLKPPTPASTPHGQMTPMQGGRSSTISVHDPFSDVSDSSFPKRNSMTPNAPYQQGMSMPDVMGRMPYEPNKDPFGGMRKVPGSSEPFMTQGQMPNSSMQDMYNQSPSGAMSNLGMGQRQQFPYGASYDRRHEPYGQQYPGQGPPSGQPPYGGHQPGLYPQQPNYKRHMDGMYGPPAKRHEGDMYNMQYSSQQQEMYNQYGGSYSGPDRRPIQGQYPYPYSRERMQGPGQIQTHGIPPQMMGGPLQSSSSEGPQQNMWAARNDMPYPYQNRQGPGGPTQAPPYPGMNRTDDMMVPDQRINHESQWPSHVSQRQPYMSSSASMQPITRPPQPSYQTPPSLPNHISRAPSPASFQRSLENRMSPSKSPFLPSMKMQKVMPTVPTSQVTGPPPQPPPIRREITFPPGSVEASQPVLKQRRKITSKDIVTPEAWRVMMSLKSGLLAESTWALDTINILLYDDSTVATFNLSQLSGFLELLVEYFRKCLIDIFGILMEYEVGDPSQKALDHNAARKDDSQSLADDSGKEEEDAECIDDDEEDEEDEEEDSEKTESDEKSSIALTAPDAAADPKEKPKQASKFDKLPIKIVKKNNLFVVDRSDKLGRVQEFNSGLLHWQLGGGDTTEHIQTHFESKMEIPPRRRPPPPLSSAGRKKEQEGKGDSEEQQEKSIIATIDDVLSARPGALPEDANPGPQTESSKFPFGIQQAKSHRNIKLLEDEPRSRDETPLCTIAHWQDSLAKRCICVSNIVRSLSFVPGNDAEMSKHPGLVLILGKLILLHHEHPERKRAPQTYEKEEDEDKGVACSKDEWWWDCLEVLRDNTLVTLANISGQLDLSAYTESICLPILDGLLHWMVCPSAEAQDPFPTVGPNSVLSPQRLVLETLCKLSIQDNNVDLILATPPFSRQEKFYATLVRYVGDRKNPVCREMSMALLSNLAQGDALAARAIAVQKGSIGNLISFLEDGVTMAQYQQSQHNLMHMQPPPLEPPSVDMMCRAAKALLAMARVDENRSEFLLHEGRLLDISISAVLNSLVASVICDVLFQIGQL
UniProt P39687: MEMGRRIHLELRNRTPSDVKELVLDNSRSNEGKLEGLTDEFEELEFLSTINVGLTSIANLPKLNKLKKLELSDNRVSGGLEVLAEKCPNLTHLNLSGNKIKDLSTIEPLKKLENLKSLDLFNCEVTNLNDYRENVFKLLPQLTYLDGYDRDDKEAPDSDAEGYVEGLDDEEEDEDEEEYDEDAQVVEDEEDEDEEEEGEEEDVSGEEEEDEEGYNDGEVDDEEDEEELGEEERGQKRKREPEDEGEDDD
UniProt P53367: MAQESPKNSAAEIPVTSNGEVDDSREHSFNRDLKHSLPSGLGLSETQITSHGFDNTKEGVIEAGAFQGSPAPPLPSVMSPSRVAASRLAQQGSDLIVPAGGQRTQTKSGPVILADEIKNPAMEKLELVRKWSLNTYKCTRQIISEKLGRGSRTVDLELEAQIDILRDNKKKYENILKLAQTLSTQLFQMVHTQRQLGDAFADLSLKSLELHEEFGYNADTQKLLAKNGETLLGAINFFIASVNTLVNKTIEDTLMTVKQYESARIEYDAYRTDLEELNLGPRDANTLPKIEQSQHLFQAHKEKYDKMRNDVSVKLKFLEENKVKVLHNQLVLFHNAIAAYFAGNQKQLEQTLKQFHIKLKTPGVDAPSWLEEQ

Compound in this test: C1=CC=C(C=C1)[C@H](COC2=CC3=C(C=C2)NC(=O)N3)NC(=O)C4=CC=CN(C4=O)CC5=CC(=C(C=C5)F)F
As to the kind of experiment: log2 fold change, soluble protein after heating vs DMSO (PISA); higher = thermal stabilisation; K562 cells, 10 uM, 30 min; active = over 0.2 and 3.5 SD of the protein, either way, in both replicates (recomputed). In a few lines: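 Quantification of soluble protein used TMTpro 16plex LC-MS/MS, with channel sums equalised. Samples were the supernatant after 21,000xg for 90 min of pooled aliquots from K562 cells (2×10^6 cells/mL) treated with 10 μM compound for 30 min, heated for 3 min over 48°C-58°C, and extracted in PBS with 0.5% NP-40 at 4°C. Values, from duplicates, describe thermal stability against control samples on a log2 fold-change scale.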
Turning to AP1AR (UniProt Q63HQ0), the log2 fold change was inactive: 0.054.

ARHGAP17 (UniProt Q68EM7): the log2 fold change was inactive: -0.061.

For the target ANKRD49 (UniProt Q8WVL7), the log2 fold change was inactive: 0.022.

As to ARFRP1 (UniProt Q13795), the log2 fold change was inactive: 0.

As to ANKRD29 (UniProt Q8N6D5), the log2 fold change is inactive: -0.012.

With APOM (UniProt O95445), the log2 fold change was inactive: -0.012.

Consider ARHGAP25 isoform 4 (UniProt P42331), for which the log2 fold change is inactive: -0.181.

In the case of ANXA4 (UniProt P09525), the log2 fold change was inactive: 0.04.

With APOH (UniProt P02749), the log2 fold change was inactive: -0.265.

Consider APPL1 (UniProt Q9UKG1), for which the log2 fold change is inactive: -0.027.

For ANTXR2 isoform 4 (UniProt P58335), the log2 fold change was inactive: 0.056.

As for AP2S1 (UniProt P53680), the log2 fold change was inactive: -0.013.

On to ARHGEF7 isoform 5 (UniProt Q14155), for which the log2 fold change was inactive: 0.199.

AP4E1 (UniProt Q9UPM8): the log2 fold change was inactive: -0.258.

With ARG2 (UniProt P78540), the log2 fold change was inactive: 0.071.

As to ANXA7 (UniProt P20073), the log2 fold change was inactive: -0.026.

In the case of APLP2 (UniProt Q06481), the log2 fold change is inactive: 0.003.

In the case of ARFGAP2 (UniProt Q8N6H7), the log2 fold change was inactive: -0.006.

In the case of ARID1B isoform 3 (UniProt Q8NFD5), the log2 fold change was inactive: -0.053.

With ANP32A (UniProt P39687), the log2 fold change was inactive: -0.054.

For ARF5 (UniProt P84085), the log2 fold change was inactive: 0.003.

For ARFIP1 isoform 2 (UniProt P53367), the log2 fold change was inactive: 0.009.
